The values that follow come from patent US20240228612A1.

By UniProt entry, the sequences of proteins in these tests, tags left out. Residues count along the entry.
UniProt Q96NY8, residues 32-144: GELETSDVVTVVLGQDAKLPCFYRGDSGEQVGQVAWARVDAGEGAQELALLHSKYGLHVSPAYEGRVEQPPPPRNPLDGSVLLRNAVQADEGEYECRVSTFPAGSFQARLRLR

No constants are given. Whether binding was seen depends on the method and setting. Some results given as binding are weak or reduced against the parent protein; the word gives no strength.

The target in assay [1] is human Nectin-4 IgV domain overexpressed on A549 cells (human) (UniProt Q96NY8). The experiment in a line: flow cytometry on A549-Nectin-4-IgV cells, single antibody concentration.
For assay [2] the target is unchanged. The experiment in a line: flow cytometry on A549-Nectin-4-IgV cells, 40 µg/mL antibody. (In flow cytometry, cells or beads pass a laser one at a time.)

B1: anti-human Nectin-4 humanized monoclonal antibody 56HZ (antibody, human IgG1, kappa, V domains shown)
VH: QVQLQESGPGLVKPSQTLSLTCTVSGYFNSITSDYDWHWIRHHPGKGLEWMGYISFSGRTYYNPSLKSRVTISHDTSKNQFSLKLSSVTAADTAVYYCARGNYDGFDYWGQGTLVTVSS
VL: DIVLTQSPATLSLSPGERATLSCRASQNIGTSIHWYQHKPGQSPRLLIKFASESISGIPARFSGSGSGTDFTLTISSLEPEDFAVYYCQQSKSWPTYTFGGGTKVEIKR
For B1, the binding result in assay [1] and in assay [2] was “binds” each time.

B2: anti-human Nectin-4 humanized monoclonal antibody 31HZ (antibody, human IgG1, kappa, V domains shown)
VH: QVQLVQSGAEVKKPGSSVKVSCKASGYTFTDYWMNWVRLAPGQGLEWIGMIHPSDSETRLNQKFQGRVTLTVDKSTSTAYMELSSLRSEDTAVYYCARWDFRIYYAMDYWGQGTLVTVSS
VL: DVVITQSPDSLAVSLGERATINCKSSQSLLNTNSQKNYLAWYQQKPGQSPKLLVYFASTRESGVPDRFSGSGSGTDFTLTISSLQAEDVAVYFCQQHYSTPLTFGGGTKVEIKR
Consider B2, for which the binding result in assay [1] and in assay [2] was “binds” each time.

B3: anti-human Nectin-4 humanized monoclonal antibody 74HZ (antibody, human IgG1, kappa, V domains shown)
VH: QVQLVQSGAEVKKPGSSVKVSCKASGYTFINYWMNWVRQAPGQGLEWIGMIHPSDSATRLNQSFQGRVTLTVDKSTSTAYMELSSLRSEDTAVYYCARWGNFYTVNAWYYFDYWGQGTLVTVSS
VL: DIVITQSPDSLAVSLGERATINCKSSQTLLNSNTQKNYLAWYQQKPGQSPKLLFYFASTRESGVPDRFSGSGSGTDFTLTISSLQAEDVAVYFCQQHYSTPLTFGQGTKLEIKR
Turning to B3, the binding entry in assay [1] and in assay [2] was “binds” in each case.
